This is one part of the list. No stated cut-off is given here; in the data, active = 1.25 or more and inactive = the rest. Most values come without repeats; read them as rough.

These results are taken from the supplement of paper PMC8551327.

The test system of the assay is Kcc2-LUC knock-in mouse primary cortical neurons (Kcc2 promoter reporter). The assay is described as follows: Kcc2 promoter-driven luciferase activity relative to vehicle control (fold of vehicle (ratio)); higher = stronger Kcc2 promoter activation (Kcc2 expression enhancer). Conditions: 100 nM; 48 h.
`CCOC(C)C(/C=N/NC(N)=S)=N\NC(N)=S` (stereo unspecified): the “Kcc2 promoter-driven luciferase activity” value is inactive: 0.37.

In the case of `Cc1cccc(C)c1NC(=O)C(=O)C(c1ccccc1Cl)S(=O)(=O)Cc1ccccc1Cl` (stereo unspecified), the “Kcc2 promoter-driven luciferase activity” value was inactive: 1.11.

For the compound `Cc1ccc2[nH]c(O)c(N=Nc3ccccc3[N+](=O)[O-])c2c1` [5-Methyl-3-[2-(2-nitrophenyl)hydrazinyl]indol-2-one], the “Kcc2 promoter-driven luciferase activity” value was inactive: 0.9.

Consider `CC(=O)/C(=C\c1cccc([N+](=O)[O-])c1)C(=O)Nc1ccccc1C`, for which the “Kcc2 promoter-driven luciferase activity” value was active: 1.44.

As to `CN(C)c1ccc(/C=C2\CCc3ccccc3C2=O)cc1Br`, the “Kcc2 promoter-driven luciferase activity” value is inactive: 0.93.

Take `CC(C)c1ccc2c(c1)CC[C@H]1[C@](C)(C(=O)O)CCC[C@]21C` [Dehydroabietic Acid]: the “Kcc2 promoter-driven luciferase activity” value is inactive: 1.
